Experiment: Intracellular elemental concentrations in sublingual buccal smears (EXAtest, energy-dispersive X-ray analysis), same study
Type: in vivo, human
Settings: buccal cells, magnesium group n = 10, mean ± SD
Experimental: A randomized, double blind, placebo-controlled study was performed at Hartford Hospital. People taking dofetilide or sotalol therapy for at least 5 half-lives were eligible for inclusion. […] After enrollment, people who discontinued their sotalol or dofetilide or altered their dosage of these drugs were excluded as well. Thirty-four participants were enrolled in the study. Three were subsequently excluded because the antiarrhythmics they were using were discontinued or the dose of the antiarrhythmics changed during the study. Given the known baseline differences in QTc intervals among men and women, each gender was randomized separately using stratified allocation. Patients completing the study (n=30) were well matched for baseline characteristics, which are reflected in Table 1. Intracellular concentrations of essential elements were available for 19 subjects. Overall 63.2% of patients (regardless of experimental group) had baseline intracellular magnesium concentrations below the normal reference range of 33.9-41.9 mEq/IU with an average level of 32.6±2.2 mEq/IU. All of the other baseline intracellular elements evaluated (phosphorus, chloride, calcium, potassium, and sodium) were within the reference range although the phosphorus was at the top of the range (average=16.7±2.8 mEq/IU with reference range of 14.2-17.0 mEq/IU).
Participants received three tablets of magnesium L-lactate (Mag-Tab SR®; Niche Pharmaceuticals; Roanoke, Tex.) or matching placebo twice daily (504 mg of elemental magnesium daily) for 48 hours (i.e. t=0, 12 h, 24 h, 36 h, and 48 h). A 12-lead electrocardiogram (ECG) was recorded at 25 mm/sec at rest prior to initiation of treatment (i.e. baseline) and at 3 and 51 hours after the first dose of magnesium (i.e. t=3 h and t=51 h) for each participant. A single blinded investigator read all ECGs using a precision ruler of 0.5 mm scale (Schlaedler-Quinzel, Inc. Parsippany, N.J.).
Sublingual buccal smears were obtained from a subgroup of participants prior to initiation of study therapy and following the third dose of magnesium using EXAtest™ kits (Intracellular Diagnostics, Inc.; Foster City, Calif.). Samples were analyzed by energy-dispersive X-ray Analysis for intracellular concentrations of magnesium, phosphorus, chloride, calcium, potassium, and sodium. The use of buccal cell smears for intracellular magnesium was performed because it is noninvasive, reproducible, and correlates well (r=0.68, p<0.002) with atrial cell intracellular magnesium.
Continuous data was expressed by a mean±SD. A p value less than 0.05 was considered statistically significant. The primary analysis was the intergroup comparisons of the change in QTc interval from baseline at 3 hours and 51 hours using Bazett's formula. Evaluations of the QRS, QT, and RR intervals were compared between groups at each time period as well. Mann-Whitney tests were used for all statistical analyses of continuous ECG data. Intracellular element intragroup comparisons were performed with a paired t-test. Chi^2 or Fischer's Exact tests were used for categorical comparisons. Statistical analysis was performed using SPSS version 5.

## C[C@H](O)C(=O)[O-].C[C@H](O)C(=O)[O-].[Mg+2] [magnesium L-lactate]
Before study therapy
  Intracellular calcium concentration, Baseline: 4.2 ± 0.4 mEq/IU
  Intracellular chloride concentration, Baseline: 4.5 ± 1.4 mEq/IU
  Intracellular potassium concentration, Baseline: 119.1 ± 22.2 mEq/IU
  Intracellular sodium concentration, Baseline: 4.4 ± 0.8 mEq/IU
Before study therapy, reference range 14.2-17.0
  Intracellular phosphorus concentration, Baseline: 15.9 ± 2.2 mEq/IU
Following the third dose
  Intracellular calcium concentration, Post-Dosing: 4.3 ± 0.6 mEq/IU
  Intracellular chloride concentration, Post-Dosing: 3.9 ± 0.6 mEq/IU
  Intracellular phosphorus concentration, Post-Dosing: 16.5 ± 1.7 mEq/IU
  Intracellular potassium concentration, Post-Dosing: 96.7 ± 20.4 mEq/IU
  Intracellular sodium concentration, Post-Dosing: 4.1 ± 0.4 mEq/IU

From patent US20140121273A1, “METHOD FOR TREATMENT OF MAGNESIUM AND POTASSIUM DEFICIENCIES” (priority 2005, published 2014)
